Assay results as given in PubChem BioAssay AID2551 (National Center for Advancing Translational Sciences (NCATS), 2010).
The campaign covered roughly 310,000 compounds. About 17,000 (5.5%) were called active. Inconclusive results, whose numbers are uncertain, are shown with a selection of clear calls. Calls follow the shape of the dose curve; as a rule, active = well fitted inhibition curve with a large enough effect; inconclusive = small, poorly fitted or top-dose-only effect, or effect the other way; inactive = no such curve, though single readings can be large or run the other way. Where the call is inconclusive, the potency comes from a doubtful curve fit.

Amino acid sequences for entries named in this document (tags omitted). A change or cut given only in a name is not applied to a line headed by its entry.
UniProt P51450: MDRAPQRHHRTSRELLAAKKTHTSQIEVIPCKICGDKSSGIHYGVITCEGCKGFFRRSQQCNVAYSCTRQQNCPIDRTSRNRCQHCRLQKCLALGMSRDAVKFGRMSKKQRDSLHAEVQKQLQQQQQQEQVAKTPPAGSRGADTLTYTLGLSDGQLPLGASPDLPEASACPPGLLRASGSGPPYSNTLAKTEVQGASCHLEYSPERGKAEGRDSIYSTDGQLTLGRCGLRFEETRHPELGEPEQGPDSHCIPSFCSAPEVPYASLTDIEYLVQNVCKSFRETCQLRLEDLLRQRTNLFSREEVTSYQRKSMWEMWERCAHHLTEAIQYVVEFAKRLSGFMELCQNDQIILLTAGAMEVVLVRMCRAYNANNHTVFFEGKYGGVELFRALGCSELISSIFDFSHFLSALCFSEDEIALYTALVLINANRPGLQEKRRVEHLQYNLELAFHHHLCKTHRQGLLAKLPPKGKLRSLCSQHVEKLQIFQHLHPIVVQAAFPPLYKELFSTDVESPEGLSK

Biological target: Nuclear receptor ROR-gamma (Mus musculus) (UniProt P51450)
Assay: qHTS for inhibitors of ROR gamma transcriptional activity; also: nearly all actives have a fitted effect of over 60% in size
Settings: Drosophila S2 Gal4-RORgamma UAS-luciferase reporter, 20 h; activity change, negative = inhibition: at 53.6 µM (top of the series)
Summary of the method: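 Read-out: Photinus luciferase luminescence; inhibitors lower reporter signal. Insect Schneider cells with Gal4-ROR gamma fusion under metallothionein promoter, UAS reporter; 700 uM final copper sulfate induction, 20 hr, ambient temperature.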
% is scaled to controls: 0 for no effect and ±100 for the full control effect; potency is read from the fitted curve at half-maximal effect.

Potency, active:
CCC1=NN(C(=O)COc2ccccc2C)C(O)(c2ccncc2)C1 (stereo not given) 3.98 µM
Cc1c(C(=O)Nc2nonc2-c2ccc(F)cc2)oc2ccc(F)cc12 8.91 µM
CC(C(=O)Nc1nc2ccccc2[nH]1)N1C(=O)C2CC=CCC2C1=O (stereo not given) 10 µM
Cc1ccc(/C=N/N=C2/NC(=O)C(CC(=O)Nc3ccccc3)S2)o1 (stereo not given) 11.2 µM
CCCC(=O)NC(c1ccc(OC)cc1)c1ccc2cccnc2c1O (stereo not given) 1.78 µM
O=C(Nc1ccc(-c2cccc(F)c2)cc1)C1CCCN(Cc2ccccn2)C1 (stereo not given) 12.6 µM
Cc1cccc(NC(=S)NCCc2ccc3c(c2)OCCO3)c1C 3.98 µM
CCCOc1cccc(-c2cc(-c3n[nH]c(=S)n3CC)c3ccccc3n2)c1 1.26 µM
COc1ccc(C(=O)OC/C(O)=C(\C#N)c2nc3ccccc3[nH]2)cc1S(=O)(=O)N1CCOCC1 12.6 µM
CN(C)c1ccc(/C=N/NC(=O)c2sccc2-n2cccc2)cc1 11.2 µM
Cc1ccccc1C(=O)OC1OC(=O)C(Cl)=C1Nc1ccccc1 (stereo not given) 11.2 µM
Cc1cccc(NC(=O)c2cnc3ccccn3c2=O)c1 2.51 µM
Cc1ccc(NC(=S)N2CCC(c3nc4ccccc4s3)CC2)cc1C 4.47 µM
C=CCNC(=S)Nc1cccc(NC(=S)NCC=C)c1 7.94 µM

Potency, inconclusive:
CC(=O)Nc1cccc(Oc2ncnc3scc(-c4ccc(C)cc4)c23)c1 20 µM [activator, single point]
CCOC(=O)N1CCN(C(=O)c2nn(-c3cc(OC)cc(OC)c3)c(=O)c3ccccc23)CC1 35.5 µM [activator, single point]
COc1cccc(-c2noc(C3CCCN(C(=O)c4cccc(F)c4)C3)n2)c1 (stereo not given) 11.2 µM [activator, partial curve, poor fit]
c1cncc(CNc2ccnc(-c3ccc4c(c3)OCO4)n2)c1 11.2 µM [activator, partial curve, poor fit]
CCOC(=O)c1ccc(NC(=O)CCc2nc(-c3ccccc3Cl)no2)cc1 20 µM [activator, partial curve]
Cc1ccc(N2CCN(C3=NC(=O)/C(=C\c4cccs4)S3)CC2)cc1 1.12 µM [activator, full curve, poor fit]
CCc1nc(NCCCCCO)c2nnn(Cc3ccccc3F)c2n1 20 µM [inhibitor, single point]
O=C(Nc1ccc2c(c1)nc1n2CCCCC1)c1cc(S(=O)(=O)N2CCOCC2)ccc1Cl 5.62 µM [activator, single point]
COc1ccc(OC)c(-n2c(=S)[nH]c3cc(C(=O)N4CCCCC4)ccc3c2=O)c1 28.2 µM [inhibitor, single point]
Cn1c(=O)c([N+](=O)[O-])c(NCc2ccc3c(c2)OCO3)c2ccccc21 35.5 µM [activator, single point]
COc1cccc(-c2csc(NC(C)=O)n2)c1 2.82 µM [activator, full curve, poor fit]
Cc1cc(NC(=O)CSc2nc3sc4c(c3c(=O)n2C)CCCC4)no1 31.6 µM [inhibitor, single point]
Cn1c(=O)c(C(=O)CN2CCN(S(=O)(=O)c3ccccc3)CC2)c(N)n(Cc2ccccc2)c1=O 35.5 µM [activator, single point]
O=C(Cn1cc(Cl)ccc1=O)c1ccc(Cl)cc1 5.62 µM [activator, full curve, poor fit]
CN(C(=O)COC(=O)c1ccccc1SCC(=O)NC1CCCCCCC1)C1CCS(=O)(=O)C1 (stereo not given) 20 µM [activator, single point]
CC(C)C(=O)N=C1SC2CS(=O)(=O)CC2N1Cc1ccc(Cl)cc1 (stereo not given) 3.98 µM [activator, full curve, poor fit]
CCC(Oc1ccccc1)C(=O)Nc1ncc([N+](=O)[O-])s1 (stereo not given) 11.2 µM [activator, partial curve]
Cc1cc(N2CCC(C)CC2)n2ncc(-c3ccccc3)c2n1 35.5 µM [inhibitor, single point]
Fc1ccc(-n2ncc3c(SCc4cccnc4)ncnc32)cc1 22.4 µM [inhibitor, single point]
CCOC(=O)/C(=N/Nc1ccc(Cl)cc1)S(=O)(=O)c1ccc(Cl)cc1 28.2 µM [activator, single point]
CC(=O)Oc1ccc(N(C(C)=O)S(=O)(=O)c2ccc3ccccc3c2)cc1 35.5 µM [activator, single point]
CC(C)(C)c1cc(-n2ccnc2)n2ncc(-c3ccc(Cl)cc3)c2n1 22.4 µM [inhibitor, single point]
Nc1nc(NCC2CCC(CNS(=O)(=O)c3cccc4ccccc34)CC2)nc2ccccc12 (stereo not given) 35.5 µM [inhibitor, single point]
CCOc1ccc(S(=O)(=O)NCc2ccc3c(c2)OCO3)cc1 1.26 µM [activator, single point]
COC(=O)c1ccc(Oc2nc(N3CCCCC3)nc(N3CCOCC3)n2)cc1 14.1 µM [activator, single point]
CCC1(C)Cc2c(C#N)c(N)n(N)c(=S)c2CO1 (stereo not given) 1.26 µM [inhibitor, full curve, poor fit]
O=C(Nc1ccc(N2CCOCC2)c(S(=O)(=O)Nc2ccc(Cl)cc2)c1)c1cnccn1 11.2 µM [activator, single point]
CCOC(=O)Cn1c(=NC(=O)C(C)(C)C)sc2cc([N+](=O)[O-])ccc21 11.2 µM [activator, partial curve]
COCCCn1c(SCc2ccccc2)nc2cc(OC)c(OC)cc2c1=N 22.4 µM [inhibitor, single point]
CC(C)Cc1ccc(C(=O)NCc2ccc3c(c2)OCO3)o1 35.5 µM [activator, single point]
Cc1nn(S(=O)(=O)c2cccs2)c(C)c1Sc1ccccc1 5.62 µM [activator, single point]
O=C1CC(c2ccccc2Cl)=NN(c2ncnc3ccccc23)C1=O 8.91 µM [activator, partial curve]
O=C(CCl)NCCN1C(=O)S/C(=C\c2cccnc2)C1=O 22.4 µM [inhibitor, single point]
CCN(CC)S(=O)(=O)c1ccc2oc(SCc3ccc(F)cc3)nc2c1 7.94 µM [activator, partial curve]
Fc1ccc(N2CCN(Cc3ccccn3)CC2)cc1 1.41 µM [inhibitor, partial curve]
CC(C)(C)NC(=O)[C@H]1CC[C@H]2[C@@H]3CC[C@H]4NC(=O)C=C[C@]4(C)[C@H]3CC[C@]12C 3.98 µM [activator, full curve]
CCOc1ccccc1NC(=S)N1CCN(c2ccccc2)CC1 35.5 µM [inhibitor, single point]
Cc1c(NC(=O)c2cccc(NC(=O)c3ccco3)c2)cccc1C(=O)O 35.5 µM [inhibitor, single point]

Activity change, negative = inhibition, inactive:
O=c1c(-c2ccc(Cl)cc2)nc2cnc(N3CCOCC3)nc2n1-c1ccccc1 9.55%
COc1ccccc1Nc1nn2c(=O)c3ccc(C(=O)N4CCCCC4)cc3nc2s1 44.3%
Cc1cccc(Nc2nc(N)c(C#N)c(CC#N)c2C#N)c1 42%
O=S(=O)(Nc1cccnc1)c1cccc(C(F)(F)F)c1 -8.58%
COc1cc(CO)ccc1OCc1nnnn1-c1ccc(C)cc1 1.44%
N=C1/C(=C/c2ccco2)C(=O)N=C2SC(CC(=O)N3CCCC3)=NN12 -13.5%
CC1=NOC(=O)/C1=C\c1ccc(-c2ccccc2Br)o1 25%
Cc1cc(/C=N/NC(=O)C(=O)NCc2ccccn2)c(C)n1-c1ccccc1 5.62%
CC(C)c1cccc(C(C)C)c1NC(=O)CNCC(O)c1ccccc1 (stereo not given) 15.1%
CCOC(=O)C(C(=O)Nc1ccccn1)C1CCCCC1 (stereo not given) -34.1%
O=c1[nH]cnc2scc(-c3ccc(Br)cc3)c12 -7.4%
Cc1c(C(=O)N/N=C/c2ccc(-c3ccccc3[N+](=O)[O-])o2)sc(N)c1C#N 39.5% [at 10 µM]
Cc1nnc2sc(SCc3cccc(Cl)c3)nn2c1=O 7.2%
CC(C)(C)c1cc(=O)n2c(C#N)c(C#N)nc2[nH]1 18.5%
Cc1cc(Cl)ccc1OCC(=O)NCCOc1nc(N2CCOCC2)nc(N2CCOCC2)n1 13.3%
Cn1nnnc1SCc1ccc(Cl)cc1 28.6%
Cc1ccc(OCC(=O)Nc2nnc(C3CCCO3)s2)c(Br)c1 (stereo not given) 15.4%
Cc1ccccc1NC(=O)CN1C(=O)CSc2ccc(S(=O)(=O)N3CCCC3)cc21 -4.57%
CCN(CC)CCn1c(=S)[nH]c2ncccc2c1=O 15.3%
COc1ccc(-c2cc(=O)oc3cc(OC(C)C(=O)NCC4CCC(C(=O)O)CC4)ccc23)cc1 (stereo not given) 10.8%
CN(C)c1c(F)cc(-c2nn[nH]n2)cc1F -20.5%
NCCCCCc1cnc[nH]1 4.21%
O=C(/C=C/c1ccc(-c2ccccc2[N+](=O)[O-])o1)c1ccccc1 26.1%

Reprinted at random: five records from the list
Activity change, negative = inhibition, inactive:
Cc1ccc(OCC(=O)Nc2nnc(C3CCCO3)s2)c(Br)c1 (stereo not given) 15.4%
Cc1nnc2sc(SCc3cccc(Cl)c3)nn2c1=O 7.2%
CCOC(=O)C(C(=O)Nc1ccccn1)C1CCCCC1 (stereo not given) -34.1%
Cc1ccccc1NC(=O)CN1C(=O)CSc2ccc(S(=O)(=O)N3CCCC3)cc21 -4.57%
COc1ccccc1Nc1nn2c(=O)c3ccc(C(=O)N4CCCCC4)cc3nc2s1 44.3%
